Results are given in words; binding and its absence hold for the method and conditions named. Binding seen in cells or lysates may run through a third protein. Some binding calls cover weakened binding; strength is not graded here. Sequences can lack the tags named with a protein.
Tests used:
[1] = target: CyclinD1 (human (endogenous in HuccT-1, HCCC9810, HIBEpic)) (UniProt P24385); experiment: co-IP; endogenous proteins, HuccT-1 and HCCC9810 cell lysates; IP lysis buffer (50 mM Tris-HCl pH 7.4, 150 mM NaCl, 1 mM EDTA, 1% NP-40, 10% glycerin); 2.5 μg antibody with Protein A + G agarose overnight at 4 °C; immunoblot
[2] = target: heterochromatin protein 1α (HP1α) (human (endogenous in HuccT-1, HCCC9810, HIBEpic)) (UniProt P45973); experiment: as above

Protein sequences, listed by entry. Tags and fused reporters are not part of them.
UniProt P24385: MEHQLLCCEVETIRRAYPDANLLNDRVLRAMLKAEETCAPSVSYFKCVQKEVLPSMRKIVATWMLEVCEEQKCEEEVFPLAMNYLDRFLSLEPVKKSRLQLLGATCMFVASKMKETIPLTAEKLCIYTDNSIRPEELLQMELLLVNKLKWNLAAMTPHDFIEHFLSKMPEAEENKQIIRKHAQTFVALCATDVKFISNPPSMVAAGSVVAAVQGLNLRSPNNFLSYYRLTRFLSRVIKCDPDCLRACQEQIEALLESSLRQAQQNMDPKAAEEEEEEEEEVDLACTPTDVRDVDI
UniProt P45973: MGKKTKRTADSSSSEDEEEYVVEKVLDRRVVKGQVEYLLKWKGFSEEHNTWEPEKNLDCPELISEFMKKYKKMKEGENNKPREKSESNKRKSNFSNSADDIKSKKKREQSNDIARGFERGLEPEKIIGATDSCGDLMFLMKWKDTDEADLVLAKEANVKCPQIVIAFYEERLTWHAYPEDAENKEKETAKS

Molecule | binding [1] | binding [2]
heterochromatin protein 1α (HP1α) (from UniProt P45973 1-191) | binds | –
histone methyltransferase Suv39H1 (enzyme, UniProt O43463 1-412) MAENLKGCSVCCKSSWNQLQDLCRLAKLSCPALGISKRNLYDFEVEYLCDYKKIREQEYYLVKWRGYPDSESTWEPRQNLKCVRILKQFHKDLERELLRRHHRSKTPRHLDPSLANYLVQKAKQRRALRRWEQELNAKRSHLGRITVENEVDLDGPPRAFVYINEYRVGEGITLNQVAVGCECQDCLWAPTGGCCPGASLHKFAYNDQGQVRLRAGLPIYECNSRCRCGYDCPNRVVQKGIRYDLCIFRTDDGRGWGVRTLEKIRKNSFVMEYVGEIITSEEAERRGQIYDRQGATYLFDLDYVEDVYTVDAAYYGNISHFVNHSCDPNLQVYNVFIDNLDERLPRIAFFATRTIRAGEELTFDYNMQVDPVDMESTRMDSNFGLAGLPGSPKKRVRIECKCGTESCRKYLF | binds | binds
